The values below come from publication PMC12215574.

Protein sequences, listed by entry. Tags and fused reporters are not part of them.
UniProt P01106: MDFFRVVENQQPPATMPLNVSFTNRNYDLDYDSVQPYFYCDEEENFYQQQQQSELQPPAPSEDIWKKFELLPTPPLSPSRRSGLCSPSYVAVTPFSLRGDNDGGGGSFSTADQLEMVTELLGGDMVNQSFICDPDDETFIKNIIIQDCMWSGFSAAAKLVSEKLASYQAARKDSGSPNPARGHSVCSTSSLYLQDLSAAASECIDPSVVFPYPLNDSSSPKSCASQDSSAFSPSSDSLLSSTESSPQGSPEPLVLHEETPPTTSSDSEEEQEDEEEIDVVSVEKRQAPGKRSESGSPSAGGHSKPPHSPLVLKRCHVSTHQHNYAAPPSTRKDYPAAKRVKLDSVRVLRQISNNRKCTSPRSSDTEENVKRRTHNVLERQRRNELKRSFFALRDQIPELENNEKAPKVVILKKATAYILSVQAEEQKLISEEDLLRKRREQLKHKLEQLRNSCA
UniProt Q92993: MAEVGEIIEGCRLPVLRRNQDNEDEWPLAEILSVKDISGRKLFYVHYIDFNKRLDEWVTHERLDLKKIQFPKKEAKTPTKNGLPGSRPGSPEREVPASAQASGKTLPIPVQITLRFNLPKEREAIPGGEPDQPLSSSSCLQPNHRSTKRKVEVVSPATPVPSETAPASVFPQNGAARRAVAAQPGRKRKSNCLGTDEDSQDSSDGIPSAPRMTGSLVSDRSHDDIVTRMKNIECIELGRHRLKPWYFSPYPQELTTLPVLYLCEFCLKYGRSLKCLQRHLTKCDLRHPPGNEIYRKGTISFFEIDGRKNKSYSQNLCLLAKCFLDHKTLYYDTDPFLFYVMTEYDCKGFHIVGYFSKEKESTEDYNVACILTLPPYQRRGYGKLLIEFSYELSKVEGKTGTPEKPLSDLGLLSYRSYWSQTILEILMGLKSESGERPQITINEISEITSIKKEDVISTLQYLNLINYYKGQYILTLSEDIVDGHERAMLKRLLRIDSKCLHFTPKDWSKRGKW

No constants are given. Whether binding was seen depends on the method and setting. In cells and extracts the contact can be indirect. Some binding calls cover weakened binding; strength is not graded here.

The target in the test is MYC (human (endogenous in MDA-MB-231)) (UniProt P01106). Nature of the test: co-IP; MDA-MB-231 lysate (IP lysis buffer, Pierce Classic Magnetic IP/Co-IP Kit) mixed at 4°C overnight with magnetic beads carrying anti-MYC, anti-TIP60 or IgG; eluate analysed by western blotting. Background: A western blot detects proteins with antibodies after separation by electrophoresis.

Take “TIP60 histone acetyltransferase (from UniProt Q92993 1-513) (enzyme)”: the binding result is given as “binds”.
